Screen size: about 320,000 compounds; about 22,000 (6.9%) were called active. The shares of active, inactive and inconclusive entries below differ from those in the screen. Calls follow the shape of the dose curve; as a rule, active = well fitted inhibition curve with a large enough effect; inconclusive = small, poorly fitted or top-dose-only effect, or another doubt; inactive = no such curve, though single readings can be large or run the other way. Potencies beside an inconclusive call are fits to weak or partial responses and may not hold up.
experiment: Primary qHTS for delayed death inhibitors of the malarial parasite plastid, 96 hour incubation; settings: P. falciparum luciferase reporter growth; series mostly up to 28.7 µM
In short: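 Plates of compound plus infected erythrocytes (2% hematocrit, 0.05% parasitemia final) incubate 96 hours, 37 C, 5% CO2. Detection reagent added; reduced luminescence from the parasites' luciferase reporter flags inhibition.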
Potency is read from the fitted curve at half-maximal effect.

Row | Structure (SMILES) | Potency
1 | Cc1oc(-c2ccccc2F)nc1CN1CCC(C(=O)NCCC2=CCCCC2)CC1 | inconclusive: 18.5 µM [inhibitor, single point]
2 | COc1ccc(-c2noc(C3CCCN(C(=O)CCc4ccccc4)C3)n2)cc1 (stereo not given) | inactive
3 | COc1ccc2cc(CCC(C)=O)ccc2c1 | inactive
4 | O=C(CN1CCCC1)Nc1sc2c(c1C(=O)Nc1ccc(Br)cc1)CCC2 | inconclusive: 1.85 µM [inhibitor, partial curve]
5 | O=C(Cc1cccs1)NCc1ccccc1Br | inconclusive: 10.4 µM [inhibitor, single point]
6 | C=CCN(CC=C)C(=S)Nc1ccc(OC)c(OC)c1 | inconclusive: 18.5 µM [inhibitor, single point]
7 | COc1ccccc1C(=O)Nc1c2c(nn1-c1ccc(Cl)cc1)CS(=O)(=O)C2 | inconclusive: 0.0037 µM [inhibitor, full curve, poor fit]
8 | O=C(NCCN1CCOCC1)c1cc(-c2ccccc2Cl)on1 | inconclusive: 18.5 µM [inhibitor, single point]
9 | CCCCC(=O)Nc1cccc(-c2nc3ncccc3o2)c1 | active: 11.7 µM
10 | Cc1ccc(S(=O)(=O)NCC(=O)N(CC(=O)NCc2ccc(F)cc2)CC2CCCO2)cc1 (stereo not given) | inconclusive: 5.86 µM [inhibitor, partial curve, poor fit]
11 | CC(C)(C)c1ccc(O)c(N=Cc2cc(Br)ccc2O)c1 | inactive
12 | C=CCn1c(SCc2ccc(C#N)cc2)nnc1-c1ccccc1 | inconclusive: 4.65 µM [inhibitor, partial curve]
13 | CCOC(=O)c1ccc(NC(=O)CC2S/C(=N/N=C/c3c[nH]c4ccccc34)NC2=O)cc1 (stereo not given) | inconclusive: 18.5 µM [inhibitor, single point]
14 | O=C(NCC1CCCO1)c1cccc(S(=O)(=O)N2CCOCC2)c1 (stereo not given) | inconclusive: 10.4 µM [inhibitor, single point]
15 | CCOC(=O)c1nnn(CC(=O)Nc2cccc(Cl)c2C)c1C(=O)OCC | inactive
16 | CCn1nc(NS(=O)(=O)c2ccccc2)c2cc3cc(C)ccc3nc21 | inconclusive: 1.17 µM [inhibitor, partial curve]
17 | O=C(N/N=C/c1cn(Cc2ccccc2)c2ccccc12)c1cc(O)cc(O)c1 | inconclusive: 18.5 µM [inhibitor, single point]
18 | CC(C)n1ncc2c(C(=O)Nc3ccc(CC#N)cc3)cc(C3CC3)nc21 | inconclusive: 13.1 µM [inhibitor, partial curve, poor fit]
19 | COc1ccc(C2CC(c3ccccc3)=NN2C(=O)COC(=O)c2cccnc2)cc1 (stereo not given) | inconclusive: 18.5 µM [inhibitor, single point]
20 | COc1ccc(NC2=CC(=S)NC(C)(C)C2)cc1 | inconclusive: 18.5 µM [inhibitor, single point]
21 | CCCCCC(C)N (stereo not given) | active: 12 µM
22 | COc1ccccc1CC1(C)NC(=O)N(CC(=O)N2CC(C)OC(C)C2)C1=O (stereo not given) | active: 0.522 µM
23 | CCOC(=O)C1CCN(Cc2cc(C(C)(C)C)c(O)c(C(C)(C)C)c2)CC1 | inconclusive: 0.037 µM [inhibitor, full curve, poor fit]

Row | Structure (SMILES) | Potency
24 | N/C(=N\OC(=O)C(c1ccccc1)c1ccccc1)c1ccncc1 | inconclusive: 11.7 µM [inhibitor, single point]
25 | CCOc1ccc(CCNC(=O)c2cccc(S(=O)(=O)N3CCCCC3)c2)cc1OCC | inconclusive: 10.4 µM [inhibitor, partial curve, poor fit]
26 | CC(=O)c1ccc(NC(=O)c2ccc(CSc3ccccc3)o2)cc1 | inconclusive: 18.5 µM [inhibitor, single point]
27 | COc1ccc(S(=O)(=O)Nc2ccc(-c3ccc4nnc(C)n4n3)cc2)c(OC)c1 | inconclusive: 10.4 µM [inhibitor, single point]
28 | O=C(Nc1ccc(-c2noc(-c3cccs3)n2)cc1)c1cccnc1 | inconclusive: 16.5 µM [inhibitor, single point]
29 | COc1ccc(C(=O)Nc2ccnn2C2CCN(Cc3cn(C)nc3C)CC2)cc1 | inactive
30 | NC(=O)CSc1nnc2n(-c3ccccc3)c(=O)c3c4c(sc3n12)CCCCC4 | inconclusive: 18.5 µM [inhibitor, single point]
31 | O=C(Cn1ccc2ccccc2c1=O)NCCC(=O)Nc1cccc(Cl)c1 | inactive
32 | Cc1nonc1NC(=O)Nc1cccnc1 | inconclusive: 11.7 µM [inhibitor, single point]
33 | COc1ccc(NC(=O)c2cc(-c3cc(OC)c(OC)c(OC)c3)nc3ccccc23)cc1OC | inconclusive: 2.62 µM [inhibitor, partial curve]
34 | CCOc1ccc(/C=C2\SC(=S)N(C)C2=O)cc1OC | inactive
35 | CN1CCN(c2ccc(NC(=O)c3ccc(-c4ccc(Cl)cc4)o3)cc2)CC1 | inconclusive: 10.4 µM [inhibitor, partial curve, poor fit]
36 | CCc1c(C)c(C#N)c2nc3ccccc3n2c1N(C)C | inactive
37 | Cc1cc(C)n2nc(C(=O)NC(c3ccccc3)c3ccccc3)nc2n1 | inactive
38 | O=C(NC(Cc1c[nH]c2ccccc12)C(=O)N/N=C/c1ccc(Br)cc1)c1cccs1 (stereo not given) | inconclusive: 16.5 µM [inhibitor, single point]
39 | CSc1ccc(CNC2CN3CCC2CC3)cc1 (stereo not given) | active: 1.65 µM
40 | CSCCC(NC(=O)c1ccccc1)C(=O)O (stereo not given) | inactive
41 | O=[N+]([O-])c1cccc(-c2c[n+]3c(n2-c2ccccc2)SCC3)c1 | active: 1.04 µM
42 | COC(=O)C1CCN(C(=O)COC(=O)C2CCN(S(=O)(=O)c3ccc(C)c(C)c3)CC2)CC1 | inactive
43 | O=C(NCCc1ccc(Cl)cc1)C1CCCN1C(=O)Nc1ccc(F)cc1 (stereo not given) | inconclusive: 9.28 µM [inhibitor, partial curve, poor fit]
44 | COc1ccc(C(=O)NC2=NCCS2)cc1S(=O)(=O)N1CCCCC1C (stereo not given) | inconclusive: 11.7 µM [inhibitor, single point]
45 | O=C(Cn1c(CSc2ccccc2)nc2ccccc21)Nc1ccccc1 | inconclusive: 18.5 µM [inhibitor, single point]

Records 7 to 8, quoted:
Row | Structure (SMILES) | Potency
7 | COc1ccccc1C(=O)Nc1c2c(nn1-c1ccc(Cl)cc1)CS(=O)(=O)C2 | inconclusive: 0.0037 µM [inhibitor, full curve, poor fit]
8 | O=C(NCCN1CCOCC1)c1cc(-c2ccccc2Cl)on1 | inconclusive: 18.5 µM [inhibitor, single point]
